Laboratory results from paper PMC4513902 (Journal of Radioanalytical and Nuclear Chemistry, 2013).

Experiment: general procedure: Fmoc solid-phase peptide synthesis; Rink Amide MBHA resin, substitution 0.69 mmol/g; N-hydroxybenzotriazole/Diisopropylcarbodiimide/DIPEA; HATU/DIPEA for HYNIC-BOC
Settings: whole synthesis

Question: For “[HYNIC-D-Tyr^5-D-Tyr^6-D-Phe^13] BB (5–14)”, which “final HPLC purity” value (analytic RP-HPLC, LC/MSD) is on record?
Answer: >99%

Question: What about the isolated yield (overall) of the same substance?
Answer: nearly 47%
